The other results are listed elsewhere or left out.

By UniProt entry, the sequences of proteins in these tests, tags left out.
UniProt Q0JBA9, entry or part of it: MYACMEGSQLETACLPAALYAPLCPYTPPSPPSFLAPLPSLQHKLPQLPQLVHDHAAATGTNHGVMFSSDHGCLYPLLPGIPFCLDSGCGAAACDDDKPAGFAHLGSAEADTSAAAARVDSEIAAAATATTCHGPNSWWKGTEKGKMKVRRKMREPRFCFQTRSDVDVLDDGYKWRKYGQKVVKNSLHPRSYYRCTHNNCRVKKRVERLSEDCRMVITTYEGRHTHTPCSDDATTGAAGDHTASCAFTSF

The target of the test is OsWRKY34 (Oryza sativa, UniProt Q0JBA9 1-250). The test can be described thus: protein-binding microarray (RPBM); PBS, 2% BSA, 51.3 ng/ul salmon testes DNA, 50 uM zinc acetate, 200 nM TF, 25 C, 1 h; high values mean tight binding. The conditions noted are these: protein: recombinant; tags: N-terminal polyhistidine and DsRed monomer fusion (pET32a); label: CyDye5-dUTP incorporated in the synthesized complementary strand; 3' TTTTT single-stranded linker to array surface; dsDNA, one strand shown. An outline of the steps: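 The binding signal for each feature is its fluorescence intensity in arbitrary units. An Axon 4000B scanner was used to read a custom Agilent array that had been made double-stranded with Cy5-dUTP primer extension, blocked with 2% BSA, incubated at 25 °C for 1 h with 200 nM protein in PBS, 2% BSA, salmon testes DNA and 50 µM zinc acetate, and washed. The protein was an N-terminal polyhistidine–DsRed transcription factor fusion from E. coli BL21-CodonPlus, purified on Ni–NTA.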
For the sequence “CCTCCTATCGAATGCCGCCTCTTTTCTGCCCGTCCACTGCCGGAGTCACCTAGTGCAG”, the binding signal is 9380 fluorescence intensity (a.u.).
As to “GCTTCTAGTACCTGTGAAATTTACTTTGGTTCCATTTTTTCGGAGTCACCTAGTGCAG”, the binding signal is 10900 fluorescence intensity (a.u.).
The value for “ATTCATTGTGTGCCATCTGGTGGTGTTGTGTATAATATTACGGAGTCACCTAGTGCAG” was 11400 fluorescence intensity (a.u.); that for “GTAATGGCATATTTGCAATTATCCCTTTGTTTATTTATTTCGGAGTCACCTAGTGCAG” was 8510 fluorescence intensity (a.u.).
In the case of “CCTCGCTGCCGCCTCAGCTCCTCCGCTTACTCGTATTCCACGGAGTCACCTAGTGCAG”, the binding signal was 11400 fluorescence intensity (a.u.).
Turning to “CACTCTCTCGGTCTCTCCATCCATCCACCTCTCTCGATCGCGGAGTCACCTAGTGCAG”, the binding signal is 8050 fluorescence intensity (a.u.).
Consider “GCGCTACTTCGCTCGACCACCCGCCCGCCTTCCACTGCCACGGAGTCACCTAGTGCAG”, for which the binding signal was 8550 fluorescence intensity (a.u.).
The value for “GCTGCCCCTTGTACTTACTTCTATCATCTTTCTTCCCACACGGAGTCACCTAGTGCAG” was 8880 fluorescence intensity (a.u.); that for “TTCACACACGAGTAATTGCAGCCTTGCTTTCTCGAAAAAACGGAGTCACCTAGTGCAG” was 17100 fluorescence intensity (a.u.); that for “TGCCATTTGAGTGCATTCATGTTCTTACTGTATCGCCTGACGGAGTCACCTAGTGCAG” was 8220 fluorescence intensity (a.u.).
For the sequence “GCTAGGGTTTTTGGGTTCACTTTGAGGCTGTTTGGTTGGTCGGAGTCACCTAGTGCAG”, the binding signal was 15100 fluorescence intensity (a.u.).
With “GCTGCACAGCTAGTCAACACAAGCTAGTCAAACCGTTGACCGGAGTCACCTAGTGCAG”, the binding signal was 19200 fluorescence intensity (a.u.).
Regarding “ACACCGCACCGCCGCAATCGTTGGCACAAGCTACAACCCTCGGAGTCACCTAGTGCAG”, the binding signal was 8540 fluorescence intensity (a.u.).
On to “TTTCAGGGCTATGGATGCCCTGGACTTTCTGGCCCAGCTTCGGAGTCACCTAGTGCAG”, for which the binding signal was 8980 fluorescence intensity (a.u.).
With “TCCTCTTCCTCCTCCGTCTCCGCTAGGGTTTCCGCGCCGCCGGAGTCACCTAGTGCAG”, the binding signal is 8170 fluorescence intensity (a.u.).
In the case of “GACGTTCTCTGCTTCCACCTCTAGTACGTTTCTACTCTACCGGAGTCACCTAGTGCAG” it was 11800 fluorescence intensity (a.u.); in that of “GGGTTTGGTCGTCAGTCTGAGGTTGGCAGAGTTTTTAGATCGGAGTCACCTAGTGCAG”, 13100 fluorescence intensity (a.u.); in that of “AACCATTCCTGTGTTTTTCCTGTGTTTTGCAATCCTCTGTCGGAGTCACCTAGTGCAG”, 12100 fluorescence intensity (a.u.).
For the sequence “GGTGGGTGGGCATTTGCAACAAAATAACTTACGGGGTGGACGGAGTCACCTAGTGCAG”, the binding signal is 17000 fluorescence intensity (a.u.).
Turning to “ATGTCTAGCAAGGCTATGGCTGCATGAAATTGTTAGGAGTCGGAGTCACCTAGTGCAG”, the binding signal was 11900 fluorescence intensity (a.u.).
As to “GTCAAGCATTCGCCCGTGTTTGCTCGCTCCGCTCCGTCACCGGAGTCACCTAGTGCAG”, the binding signal was 10000 fluorescence intensity (a.u.).
The value for “TGCGTCCCATTTTTCCGTTCGCTCCGCCGCATCGCTAAACCGGAGTCACCTAGTGCAG” was 9410 fluorescence intensity (a.u.); that for “TGTGTCGATGTTGTTTCTTTGACTTGTGACTCTCATTGGACGGAGTCACCTAGTGCAG” was 10700 fluorescence intensity (a.u.).
“ATTTTTACTCTAACAACAGCTCATCTACTACCCTACTACTCGGAGTCACCTAGTGCAG”: the binding signal is 8660 fluorescence intensity (a.u.).
For “TGCAGCATATGCTTGACCTTTATGTGTTTTATATAATTTTCGGAGTCACCTAGTGCAG”, the binding signal is 8260 fluorescence intensity (a.u.).
As for “TCTCCCGTCTTTACAATCCACCGCGTACTACCGCCTCCACCGGAGTCACCTAGTGCAG”, the binding signal was 8160 fluorescence intensity (a.u.).
In the case of “GCTTCTCTCGCGCGCGCACCAACCGCCGCCCGTGCCCGGTCGGAGTCACCTAGTGCAG” it was 8890 fluorescence intensity (a.u.).
On to “CATATTATTTTCTGTTTGTAAATACACTGTTGGACTTATTCGGAGTCACCTAGTGCAG”, for which the binding signal is 8070 fluorescence intensity (a.u.).
Consider “GCACCCAGCTGCAACATGGATCACCGAACACATCGATCCACGGAGTCACCTAGTGCAG”, for which the binding signal is 10300 fluorescence intensity (a.u.).
“AACCTAGGGGCAGTTCCCATTTCTCCCTCATCGTCATCTTCGGAGTCACCTAGTGCAG”: the binding signal is 11300 fluorescence intensity (a.u.).
For “GTGGGCAGCGGCGGCGGCCGGTGGGAGGAGGGGAAGCATGCGGAGTCACCTAGTGCAG”, the binding signal was 8380 fluorescence intensity (a.u.).
For the sequence “CAAAATCTTGCACACCACACTTGATCATCACTTTTTTTTTCGGAGTCACCTAGTGCAG”, the binding signal is 10800 fluorescence intensity (a.u.).
For “TCTTTGATTAACCACTTCACCAGATAACTCATCCCACTTTCGGAGTCACCTAGTGCAG”, the binding signal was 8530 fluorescence intensity (a.u.).
On to “CCATTCCATGGCTATCAGGAGAGGGTTCATGGGGAGGGTACGGAGTCACCTAGTGCAG”, for which the binding signal is 8940 fluorescence intensity (a.u.).
In the case of “GCCCTTTTCTTGAGCACCCACATCGGCCTCAACACGGATCCGGAGTCACCTAGTGCAG”, the binding signal is 8400 fluorescence intensity (a.u.).
For “AGCCCGTTTTGTTTGTTTCTTCCGGCCTCCGTGTGGTACACGGAGTCACCTAGTGCAG”, the binding signal was 12700 fluorescence intensity (a.u.).
In the case of “GCCGCCGTTGCAGTGCCGCTGCTCAACCCGTTCACCATCGCGGAGTCACCTAGTGCAG”, the binding signal is 10300 fluorescence intensity (a.u.).
The value for “CCTTAGCGGTATCCCTATTTATCTATTTATACTGTGTTTACGGAGTCACCTAGTGCAG” was 9860 fluorescence intensity (a.u.); that for “CCGCTAAGACTTGCCTACTCCACTACCGCTTCTACTGCTTCGGAGTCACCTAGTGCAG” was 10400 fluorescence intensity (a.u.).
On to “TTCAATCATGTTCCTTAGTTCACTAATGTTCAACTGCCAACGGAGTCACCTAGTGCAG”, for which the binding signal was 8270 fluorescence intensity (a.u.).
Consider “TAGATGAAATGGGTTGGGTTGATTTGGGTTGAAATATGATCGGAGTCACCTAGTGCAG”, for which the binding signal was 21800 fluorescence intensity (a.u.).
With “TTCTTATTCTGTCGGTTGTGTGGTGGCAGGGCAGTTAATTCGGAGTCACCTAGTGCAG”, the binding signal is 8630 fluorescence intensity (a.u.).

The values are drawn from paper PMC7819943, “Rice protein-binding microarrays: a tool to detect cis-acting elements near promoter regions in rice”.
